pIC50: −log10 of the molar value. Some entries share one result that the patent states for a list of compounds.
Legend:
[1] = molecular target: T1, murine Aurora Kinase 1 (mAur1) (Mus musculus, UniProt O70126); assay: murine Aurora Kinase 1 (mAur1) biochemical Scintillation Proximity Assay; conditions: SPA, biotinylated Peptide 830, 1 μM ATP, 12 nM GST-tagged mAur 1 co-expressed with human INCENP
T1 construct: recombinant, GST-tagged mAur 1 (amino acids 67-345) that was co-expressed with human INCENP; GST; made in house
Protocol: (§1) Using a Scintillation Proximity Assay (SPA) format, the murine Aurora Kinase 1 (mAur1) and murine Aurora Kinase 2 (mAur2) biochemical assay measures the ability of mAur2 to phosphorylate the substrate, biotinylated Peptide 830 (DRT, Protein Sciences). Once radiolabeled by the enzyme, the biotinylated substrate is captured on streptavidin-coated SPA beads and the radioactivity, in proximity to the SPA beads, is measured. For the generation of IC50 curves, the reaction was performed in 96-well isoplates (Wallac 1450-514) under the following conditions: a 10 mM stock solution of compound (in 100% dimethylsulfoxide; DMSO) was diluted 10 fold in 100% DMSO. Compounds were then serially diluted, 1:5, for an eight point dose curve, in 100% DMSO. A volume of 1 μL of the diluted compound was added to the reaction buffer that consisted of 25 mM HEPES pH 7.5, 1 mM MnCl2, 1 mM MgCl2, 1 mM DTT, 0.01% Tween20. A mixture with a final concentration per well of 1 μM cold ATP, 0.1 μCi ^33P-ATP (Amersham AH9968) and 1 μM biotinylated Peptide 830 was then added. […] Phosphorylation of the peptide substrate was measured using a Wallac 1450 Microbeta Plus Liquid Scintillation Counter.

Protein sequences, listed by entry. Tags and fused reporters are not part of them. Residues count along the entry.
UniProt O70126, 67-345: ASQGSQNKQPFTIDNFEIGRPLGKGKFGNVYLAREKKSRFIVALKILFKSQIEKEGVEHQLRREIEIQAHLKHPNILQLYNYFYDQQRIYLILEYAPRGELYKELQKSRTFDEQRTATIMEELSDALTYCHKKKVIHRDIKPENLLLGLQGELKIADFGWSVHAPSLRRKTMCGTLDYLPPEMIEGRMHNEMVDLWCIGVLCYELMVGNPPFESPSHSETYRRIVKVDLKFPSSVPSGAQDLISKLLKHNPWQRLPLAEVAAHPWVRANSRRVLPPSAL

[2] = molecular target: T2, murine Aurora Kinase 2 (mAur2) (Mus musculus, UniProt P97477); assay: murine Aurora Kinase 2 (mAur2) biochemical Scintillation Proximity Assay; conditions: SPA, biotinylated Peptide 830, 1 μM ATP, 20 nM His-tagged mAur2
T2 construct: N-terminal His-tagged mAur2 (amino acids 98-395; DRT, Protein Sciences); His (N); made in house
T2 sequence (P97477 98-395): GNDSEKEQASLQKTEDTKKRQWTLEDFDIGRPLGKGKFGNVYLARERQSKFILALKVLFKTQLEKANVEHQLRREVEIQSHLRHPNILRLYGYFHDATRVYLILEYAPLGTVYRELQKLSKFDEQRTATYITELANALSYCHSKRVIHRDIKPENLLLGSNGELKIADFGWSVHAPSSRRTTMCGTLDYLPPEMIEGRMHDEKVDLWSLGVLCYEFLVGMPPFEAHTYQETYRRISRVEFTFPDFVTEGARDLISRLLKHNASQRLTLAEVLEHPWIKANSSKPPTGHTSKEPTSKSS
Protocol: as §1

## 4-amino-5-{4-[(5-methoxy-3H-imidazo[4,5-b]pyridin-2-yl)amino]phenyl}-N-(2,2,2-trifluoroethyl)pyrrolo[2,1-1,2,4]triazine-6-carboxamide [Example 24]
[1]
  pIC50: > 7.00
[2]
  pIC50: > 7.00
